In PubChem BioAssay AID298 (DTP/NCI, 2004):
The list does not hold the whole screen: it covers a few groups of compounds. Other doses and runs of a compound may be missing. T/C gives the treated animals as a percentage of the vehicle group. Schedules are NCI's codes, taken here to give the interval after Q, in days (D) or hours (H), and the number of doses after X.

Test system: MX-1 breast xenograft, intrarenal, nude mice, tumor weight
Assay: NCI In Vivo Anticancer Drug Screen. Data for tumor model Human Mammary Carcinoma MX-1 Xenograft (intrarenal inoculation) in NU/NU BALB/C (nude) mice
Details: T/C endpoint: mean tumor weight change, schedule: Q04DX003 (ip), vehicle: saline, evaluated on day 11, higher T/C = larger tumour
Procedure: The antitumor activity of compounds was measured in mice bearing transplantable tumors. Survival or tumor size were measured and the results are expressed as the measurement made in the treated group (T) divided by the measurement made in the vehicle treated control group (C). The tumor model used in this assay is Human Mammary Carcinoma MX-1 Xenograft (intrarenal inoculation) in NU/NU BALB/C (nude) mice

For `CN(CCCl)CCCl`, the T/C (dose: 0.38 mg/kg/injection) was 12 % of control, the T/C (dose: 0.75 mg/kg/injection) was 7 % of control and the T/C (dose: 1.25 mg/kg/injection) was 1 % of control.
